Test [1] concerns the target endophilin2, endogenous (rat (endogenous in Sprague Dawley rat brain)) (UniProt O35964). The experiment in a line: co-IP; lysates of 1-month-old SD rat brain precipitated with endophilin2 antibody (normal IgG as control), Western blot with GluA1 antibody.
For the next test, the target named is GST-endophilin2 (UniProt O35964). The experiment in a line: pull-down; about 5 μg GST-fused protein on glutathione agarose beads incubated with 300 μg 1-month-old SD rat brain protein for 8 h at 4°C; 100 mM NaCl, 20 mM Tris HCl, 5% glycerol, pH 7.0, 1% Triton X-100, protease inhibitors; Western blot with anti-GluA1 and anti-GluA2; only the target purified.

Amino acid sequences for entries named in this document (tags omitted). Residues count along the entry.
UniProt O35964: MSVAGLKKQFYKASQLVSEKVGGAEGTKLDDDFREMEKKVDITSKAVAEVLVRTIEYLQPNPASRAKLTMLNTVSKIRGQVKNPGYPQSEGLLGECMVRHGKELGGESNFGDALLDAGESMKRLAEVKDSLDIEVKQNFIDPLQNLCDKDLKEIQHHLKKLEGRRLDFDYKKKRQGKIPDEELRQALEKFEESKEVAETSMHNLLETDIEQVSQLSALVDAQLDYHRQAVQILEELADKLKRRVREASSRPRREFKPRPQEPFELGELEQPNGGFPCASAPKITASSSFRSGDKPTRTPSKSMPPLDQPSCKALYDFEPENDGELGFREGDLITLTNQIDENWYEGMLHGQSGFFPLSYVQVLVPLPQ
UniProt P19490, residues 19-907: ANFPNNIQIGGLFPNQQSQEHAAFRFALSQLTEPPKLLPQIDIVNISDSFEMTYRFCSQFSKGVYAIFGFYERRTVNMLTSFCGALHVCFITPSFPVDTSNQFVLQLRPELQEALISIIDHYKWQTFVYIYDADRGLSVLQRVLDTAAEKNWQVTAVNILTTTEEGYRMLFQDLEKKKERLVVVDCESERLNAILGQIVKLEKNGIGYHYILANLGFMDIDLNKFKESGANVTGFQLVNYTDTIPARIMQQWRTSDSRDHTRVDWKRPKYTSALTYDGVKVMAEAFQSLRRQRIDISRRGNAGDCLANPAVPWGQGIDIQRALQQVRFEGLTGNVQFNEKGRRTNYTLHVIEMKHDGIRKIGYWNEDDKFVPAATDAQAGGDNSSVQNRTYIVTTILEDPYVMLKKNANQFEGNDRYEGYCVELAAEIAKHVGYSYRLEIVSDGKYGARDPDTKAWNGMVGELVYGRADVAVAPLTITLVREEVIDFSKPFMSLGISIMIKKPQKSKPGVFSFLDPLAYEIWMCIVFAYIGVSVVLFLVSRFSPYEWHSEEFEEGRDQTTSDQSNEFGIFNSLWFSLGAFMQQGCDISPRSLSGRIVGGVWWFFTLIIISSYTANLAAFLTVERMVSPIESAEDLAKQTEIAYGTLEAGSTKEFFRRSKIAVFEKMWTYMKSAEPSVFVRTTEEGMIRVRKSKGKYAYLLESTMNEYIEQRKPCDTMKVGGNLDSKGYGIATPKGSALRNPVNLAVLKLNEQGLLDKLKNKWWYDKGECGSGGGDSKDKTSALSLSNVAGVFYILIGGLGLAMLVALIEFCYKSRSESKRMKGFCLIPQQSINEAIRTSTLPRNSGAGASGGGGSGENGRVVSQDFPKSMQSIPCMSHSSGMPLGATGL
UniProt P19491, residues 22-883: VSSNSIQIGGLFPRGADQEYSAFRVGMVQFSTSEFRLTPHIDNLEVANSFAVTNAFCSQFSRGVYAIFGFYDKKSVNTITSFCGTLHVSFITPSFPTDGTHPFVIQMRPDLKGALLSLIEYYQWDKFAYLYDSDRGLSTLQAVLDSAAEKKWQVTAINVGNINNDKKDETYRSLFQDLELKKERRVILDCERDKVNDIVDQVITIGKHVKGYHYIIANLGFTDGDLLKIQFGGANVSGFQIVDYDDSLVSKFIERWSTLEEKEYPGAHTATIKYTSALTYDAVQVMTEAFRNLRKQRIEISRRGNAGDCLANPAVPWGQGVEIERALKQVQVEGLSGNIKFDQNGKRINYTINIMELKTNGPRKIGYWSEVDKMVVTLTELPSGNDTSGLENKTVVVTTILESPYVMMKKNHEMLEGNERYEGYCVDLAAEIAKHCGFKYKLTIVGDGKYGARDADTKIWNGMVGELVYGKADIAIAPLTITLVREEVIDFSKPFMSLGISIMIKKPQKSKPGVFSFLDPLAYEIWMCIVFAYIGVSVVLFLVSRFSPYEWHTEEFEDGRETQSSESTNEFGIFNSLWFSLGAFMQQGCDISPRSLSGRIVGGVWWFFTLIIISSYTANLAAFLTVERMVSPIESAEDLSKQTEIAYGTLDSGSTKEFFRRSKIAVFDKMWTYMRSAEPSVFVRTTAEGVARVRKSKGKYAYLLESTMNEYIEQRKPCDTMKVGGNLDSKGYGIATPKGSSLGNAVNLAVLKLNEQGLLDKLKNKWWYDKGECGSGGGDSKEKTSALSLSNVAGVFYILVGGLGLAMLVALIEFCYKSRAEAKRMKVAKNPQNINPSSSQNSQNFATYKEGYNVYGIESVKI

Results are given in words; binding and its absence hold for the method and conditions named. In cells and extracts the contact can be indirect. Some entries that bind do so weakly or less than the wild type.

With “GluA1 (AMPA receptor subunit), endogenous (from UniProt P19490 19-907)”, the binding result (in test [1]; with GST-endophilin2) was “binds” in each case.

For the substance “GluA2 (AMPA receptor subunit), endogenous (from UniProt P19491 22-883)”, the binding entry with GST-endophilin2 is listed as “no binding”.

For the origin of these results see paper PMC5516760.
